# According to the supplement of paper PMC8728848:
# Some of the results follow.
# B1: CLC (Homo sapiens), Q9UBD9 (protein)
# chain: MDLRAGDSWGMLACLCTVLWHLPAVPALNRTGDPGPGPSIQKTYDLTRYLEHQLRSLAGTYLNYLGPPFNEPDFNPPRLGAETLPRATVDLEVWRSLNDKLRLTQNYEAYSHLLCYLRGLNRQAATAELRRSLAHFCTSLQGLLGSIAGVMAALGYPLPQPLPGTEPTWTPGPAHSDFLQKMDDFWLLKELQTWLWRSAKDFNRLKKKMQPPAAAVTLHLGAHGF
# Columns and labels:
# Test in all cases: glycan array binding signal (z-score within array); higher = stronger binding
# Conditions in all cases: glycan notation: IUPAC condensed, linker removed
# GlcNAc(b1-3)Gal(b1-4)Glc = target: GlcNAc(b1-3)Gal(b1-4)Glc
# Outline: (§1)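 Glycan array binding is given as a within-array Z-score, which can be read as non-binding when negative. The arrays, 3228 of them, came from the Consortium for Functional Glycomics database and were retained only where the protein sequence was available. Z-scores were averaged across arrays of the same protein sequence at different concentrations or buffers and across linkers.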
# [1] = target: GlcNAc(b1-3)Gal(b1-4)GlcNAc
# Outline: as §1
# [2] = target: GlcNAc(b1-3)Gal(b1-4)GlcNAc(b1-3)Gal(b1-4)GlcNAc
# Outline: as §1
# GlcNAc(b1-3)GalNAc = target: GlcNAc(b1-3)GalNAc
# Outline: as §1
# GlcNAc(b1-3)Man = target: GlcNAc(b1-3)Man
# Outline: as §1
# [3] = target: GlcNAc(b1-3)[GlcNAc(b1-4)][GlcNAc(b1-6)]GlcNAc
# Outline: as §1
# [4] = target: GlcNAc(b1-3)[GlcNAc(b1-6)]Gal(b1-4)GlcNAc
# Outline: as §1
# [5] = target: GlcNAc(b1-3)[GlcNAc(b1-6)]GalNAc
# Outline: as §1
# [6] = target: GlcNAc(b1-4)Gal(b1-4)GlcNAc
# Outline: as §1
# GlcNAc(b1-4)GlcNAc = target: GlcNAc(b1-4)GlcNAc
# Outline: as §1
# [7] = target: GlcNAc(b1-4)GlcNAc(b1-4)GlcNAc
# Outline: as §1
# [8] = target: GlcNAc(b1-4)GlcNAc(b1-4)GlcNAc(b1-4)GlcNAc(b1-4)GlcNAc
# Outline: as §1
# [9] = target: GlcNAc(b1-4)GlcNAc(b1-4)GlcNAc(b1-4)GlcNAc(b1-4)GlcNAc(b1-4)GlcNAc
# Outline: as §1
# [10] = target: GlcNAc(b1-4)[GlcNAc(b1-6)]GalNAc
# Outline: as §1
# [11] = target: GlcNAc(b1-6)Gal(b1-4)GlcNAc
# Outline: as §1
# GlcNAc(b1-6)GalNAc = target: GlcNAc(b1-6)GalNAc
# Outline: as §1
# GlcNAc3Prop(b1-4)GlcNAc = target: GlcNAc3Prop(b1-4)GlcNAc
# Outline: as §1
# Kdn(a2-3)Gal(b1-3)GlcNAc = target: Kdn(a2-3)Gal(b1-3)GlcNAc
# Outline: as §1
# Kdn(a2-3)Gal(b1-4)GlcNAc = target: Kdn(a2-3)Gal(b1-4)GlcNAc
# Outline: as §1
# [12] = target: Man(a1-2)Man(a1-2)Man(a1-3)Man
# Outline: as §1
# [13] = target: Man(a1-2)Man(a1-2)Man(a1-6)[Man(a1-3)]Man
# Outline: as §1
# Man(a1-2)Man(a1-3)Man = target: Man(a1-2)Man(a1-3)Man
# Outline: as §1
# [14] = target: Man(a1-2)Man(a1-3)[Man(a1-2)Man(a1-6)]Man
# Outline: as §1
# [15] = target: Man(a1-2)Man(a1-3)[Man(a1-2)Man(a1-6)]Man(a1-6)[Man(a1-2)Man(a1-2)Man(a1-3)]Man
# Outline: as §1
# [16] = target: Man(a1-2)Man(a1-3)[Man(a1-2)Man(a1-6)]Man(a1-6)[Man(a1-2)Man(a1-2)Man(a1-3)]Man(b1-4)GlcNAc(b1-4)GlcNAc
# Outline: as §1
# [17] = target: Man(a1-2)Man(a1-3)[Man(a1-6)]Man(a1-6)[Man(a1-2)Man(a1-3)]Man(b1-4)GlcNAc(b1-4)GlcNAc
# Outline: as §1
# [18] = target: Man(a1-2)Man(a1-6)[Man(a1-3)]Man(a1-6)[Man(a1-2)Man(a1-2)Man(a1-3)]Man
# Outline: as §1
# [19] = target: Man(a1-2)Man(a1-6)[Man(a1-3)]Man(a1-6)[Man(a1-2)Man(a1-2)Man(a1-3)]Man(b1-4)GlcNAc(b1-4)GlcNAc
# Outline: as §1
# Man(a1-3)[Man(a1-6)]Man = target: Man(a1-3)[Man(a1-6)]Man
# Outline: as §1
# [20] = target: Man(a1-3)[Man(a1-6)]Man(a1-6)[Man(a1-2)Man(a1-3)]Man(b1-4)GlcNAc(b1-4)GlcNAc
# Outline: as §1
# [21] = target: Man(a1-3)[Man(a1-6)]Man(a1-6)[Man(a1-3)]Man
# Outline: as §1
# [22] = target: Man(a1-3)[Man(a1-6)]Man(a1-6)[Man(a1-3)]Man(b1-4)GlcNAc(b1-4)GlcNAc
# Outline: as §1
# [23] = target: Man(a1-3)[Man(a1-6)]Man(b1-4)GlcNAc(b1-4)GlcNAc
# Outline: as §1
# Man(a1-6)Man = target: Man(a1-6)Man
# Outline: as §1
# Man(b1-4)GlcNAc = target: Man(b1-4)GlcNAc
# Outline: as §1
# Neu5Ac(a2-3)Gal = target: Neu5Ac(a2-3)Gal
# Outline: as §1
# [24] = target: Neu5Ac(a2-3)Gal(b1-3)GalNAc
# Outline: as §1
# [25] = target: Neu5Ac(a2-3)Gal(b1-3)GalNAc(b1-3)Gal(a1-4)Gal(b1-4)Glc
# Outline: as §1
# [26] = target: Neu5Ac(a2-3)Gal(b1-3)GalNAc(b1-3)Gal(b1-4)GlcNAc
# Outline: as §1
# [27] = target: Neu5Ac(a2-3)Gal(b1-3)GalNAc(b1-4)[Neu5Ac(a2-3)]Gal(b1-4)Glc
# Outline: as §1
# [28] = target: Neu5Ac(a2-3)Gal(b1-3)GalNAc6S
# Outline: as §1
# [29] = target: Neu5Ac(a2-3)Gal(b1-3)GlcNAc
# Outline: as §1
# [30] = target: Neu5Ac(a2-3)Gal(b1-3)GlcNAc(b1-3)Gal(b1-3)GlcNAc
# Outline: as §1
# [31] = target: Neu5Ac(a2-3)Gal(b1-3)GlcNAc6S
# Outline: as §1
# [32] = target: Neu5Ac(a2-3)Gal(b1-3)[Fuc(a1-4)]GlcNAc
# Outline: as §1
binder,measurement,setting,value
B1,glycan array binding signal (z-score),GlcNAc(b1-3)Gal(b1-4)Glc,0.24
same,glycan array binding signal (z-score),[1],0.314
same,glycan array binding signal (z-score),[2],-0.93
same,glycan array binding signal (z-score),GlcNAc(b1-3)GalNAc,-0.653
same,glycan array binding signal (z-score),GlcNAc(b1-3)Man,-0.485
same,glycan array binding signal (z-score),[3],0.341
same,glycan array binding signal (z-score),[4],2.01
same,glycan array binding signal (z-score),[5],0.535
same,glycan array binding signal (z-score),[6],-0.918
same,glycan array binding signal (z-score),GlcNAc(b1-4)GlcNAc,0.598
same,glycan array binding signal (z-score),[7],-0.403
same,glycan array binding signal (z-score),[8],1.02
same,glycan array binding signal (z-score),[9],-0.685
same,glycan array binding signal (z-score),[10],-0.555
same,glycan array binding signal (z-score),[11],-0.283
same,glycan array binding signal (z-score),GlcNAc(b1-6)GalNAc,-0.562
same,glycan array binding signal (z-score),GlcNAc3Prop(b1-4)GlcNAc,1.06
same,glycan array binding signal (z-score),Kdn(a2-3)Gal(b1-3)GlcNAc,-0.192
same,glycan array binding signal (z-score),Kdn(a2-3)Gal(b1-4)GlcNAc,1.06
same,glycan array binding signal (z-score),[12],0.263
same,glycan array binding signal (z-score),[13],0.289
same,glycan array binding signal (z-score),Man(a1-2)Man(a1-3)Man,-0.005
same,glycan array binding signal (z-score),[14],0.606
same,glycan array binding signal (z-score),[15],-0.894
same,glycan array binding signal (z-score),[16],0.814
same,glycan array binding signal (z-score),[17],-0.127
same,glycan array binding signal (z-score),[18],-0.995
same,glycan array binding signal (z-score),[19],0.225
same,glycan array binding signal (z-score),Man(a1-3)[Man(a1-6)]Man,-0.677
same,glycan array binding signal (z-score),[20],0.311
same,glycan array binding signal (z-score),[21],-0.046
same,glycan array binding signal (z-score),[22],1.12
same,glycan array binding signal (z-score),[23],-0.158
same,glycan array binding signal (z-score),Man(a1-6)Man,0.174
same,glycan array binding signal (z-score),Man(b1-4)GlcNAc,-0.027
same,glycan array binding signal (z-score),Neu5Ac(a2-3)Gal,0.948
same,glycan array binding signal (z-score),[24],-0.219
same,glycan array binding signal (z-score),[25],-0.342
same,glycan array binding signal (z-score),[26],0.696
same,glycan array binding signal (z-score),[27],1.31
same,glycan array binding signal (z-score),[28],-0.29
same,glycan array binding signal (z-score),[29],-0.576
same,glycan array binding signal (z-score),[30],-0.666
same,glycan array binding signal (z-score),[31],0.111
same,glycan array binding signal (z-score),[32],-0.63

# Another view of part of the listing above:
binder | measurement | setting | value
B1 | glycan array binding signal (z-score) | GlcNAc(b1-6)GalNAc | -0.562
same | glycan array binding signal (z-score) | [19] | 0.225
